This assay concerns the target cynomolgus monkey Factor B (cynomolgus monkey). Put plainly: ELISA; cynomolgus Factor B coated at 5 µg/mL, mAb in 3-fold dilutions from 10 µg/mL (top concentration from paragraph 341; the sheet gives none).

Results on 1 molecule are retold here after patent US20240228599A1.

These are yes or no findings as the source states them, for the method shown.

B1: anti-factor Bb monoclonal antibody M17 (antibody, V domains shown)
VH: EVQLVESGGVLVKPGGSLKLSCAASGFTFSNFAMSWVRQTPAKRLEWVATISNGGGYTYYPDSVQGRFTISRDNANNTLYLQMSSLRSEDTALYYCARIYYGSSYEDWFAYWGQGTLVTVSA
VL: DIVMTPSHKFMSTSVGDRVSITCKASQDVGSAVAWYQQKPGHSPKLLIFWASTRHTGVPDRFTGSGSGTDFTLTISNVQSEDLADYFCQQYSSYPYTFGGGTRLEIK
Regarding B1, the binding entry is given as “no binding (tested: 10 µg/mL)”.
